Results from the supplement of paper PMC10849652.
Some of the results follow.

Chains of the proteins cited; added tags and fusions are not shown. Lines headed by an entry give the natural chain unless they say otherwise; changes in a name come on top.
UniProt Q13011: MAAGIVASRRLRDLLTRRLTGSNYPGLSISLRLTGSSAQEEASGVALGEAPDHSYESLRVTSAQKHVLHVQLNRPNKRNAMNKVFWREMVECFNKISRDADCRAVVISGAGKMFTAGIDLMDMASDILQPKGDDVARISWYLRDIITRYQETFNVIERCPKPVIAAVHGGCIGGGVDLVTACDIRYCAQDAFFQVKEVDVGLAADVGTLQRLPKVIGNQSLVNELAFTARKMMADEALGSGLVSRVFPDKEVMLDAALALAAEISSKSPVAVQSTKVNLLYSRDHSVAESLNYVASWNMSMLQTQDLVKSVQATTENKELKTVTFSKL
UniProt Q3B7T1: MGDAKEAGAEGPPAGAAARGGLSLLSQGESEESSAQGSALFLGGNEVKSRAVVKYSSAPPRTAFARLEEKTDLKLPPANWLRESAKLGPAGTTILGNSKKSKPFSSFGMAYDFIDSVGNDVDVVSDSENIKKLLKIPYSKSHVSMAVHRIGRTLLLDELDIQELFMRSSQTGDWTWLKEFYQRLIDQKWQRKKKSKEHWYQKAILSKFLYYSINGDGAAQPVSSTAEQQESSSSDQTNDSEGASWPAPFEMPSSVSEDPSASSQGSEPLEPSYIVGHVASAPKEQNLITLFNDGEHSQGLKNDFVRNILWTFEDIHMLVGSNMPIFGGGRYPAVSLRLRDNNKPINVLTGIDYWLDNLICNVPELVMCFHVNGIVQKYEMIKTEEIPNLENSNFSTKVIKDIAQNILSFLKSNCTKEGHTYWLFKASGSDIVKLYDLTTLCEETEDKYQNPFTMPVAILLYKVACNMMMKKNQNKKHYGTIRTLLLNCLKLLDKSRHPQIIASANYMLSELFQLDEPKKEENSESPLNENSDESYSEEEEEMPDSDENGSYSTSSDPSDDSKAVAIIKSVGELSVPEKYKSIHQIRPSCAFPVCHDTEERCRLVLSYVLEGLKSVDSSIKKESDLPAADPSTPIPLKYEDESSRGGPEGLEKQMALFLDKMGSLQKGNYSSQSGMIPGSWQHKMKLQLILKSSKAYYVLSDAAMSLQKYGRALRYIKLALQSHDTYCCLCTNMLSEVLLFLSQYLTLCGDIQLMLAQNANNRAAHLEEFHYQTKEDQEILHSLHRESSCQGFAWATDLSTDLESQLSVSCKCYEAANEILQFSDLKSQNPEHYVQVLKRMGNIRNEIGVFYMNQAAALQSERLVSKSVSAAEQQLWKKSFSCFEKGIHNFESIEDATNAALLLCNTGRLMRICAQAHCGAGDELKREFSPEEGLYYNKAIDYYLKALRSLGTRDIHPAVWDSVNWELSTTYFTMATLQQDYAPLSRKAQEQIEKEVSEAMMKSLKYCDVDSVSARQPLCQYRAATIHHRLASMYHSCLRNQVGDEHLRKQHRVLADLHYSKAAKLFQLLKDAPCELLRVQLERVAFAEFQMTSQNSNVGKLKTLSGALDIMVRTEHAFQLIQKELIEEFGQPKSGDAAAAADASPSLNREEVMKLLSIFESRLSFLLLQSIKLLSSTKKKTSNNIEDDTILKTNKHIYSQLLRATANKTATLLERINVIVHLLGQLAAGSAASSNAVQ
UniProt Q9BTV6: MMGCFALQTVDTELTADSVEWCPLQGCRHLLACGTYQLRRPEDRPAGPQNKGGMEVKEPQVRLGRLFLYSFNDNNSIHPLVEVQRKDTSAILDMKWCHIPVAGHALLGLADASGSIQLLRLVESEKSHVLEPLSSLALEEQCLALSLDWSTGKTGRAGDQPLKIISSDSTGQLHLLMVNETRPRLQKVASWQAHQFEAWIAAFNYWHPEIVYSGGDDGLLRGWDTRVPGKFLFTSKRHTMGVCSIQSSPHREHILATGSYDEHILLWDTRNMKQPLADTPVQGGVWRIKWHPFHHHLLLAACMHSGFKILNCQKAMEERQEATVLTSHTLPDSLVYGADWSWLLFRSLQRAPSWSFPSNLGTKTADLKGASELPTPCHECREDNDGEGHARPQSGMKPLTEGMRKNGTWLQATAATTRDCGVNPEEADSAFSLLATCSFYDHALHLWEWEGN
UniProt Q96G46: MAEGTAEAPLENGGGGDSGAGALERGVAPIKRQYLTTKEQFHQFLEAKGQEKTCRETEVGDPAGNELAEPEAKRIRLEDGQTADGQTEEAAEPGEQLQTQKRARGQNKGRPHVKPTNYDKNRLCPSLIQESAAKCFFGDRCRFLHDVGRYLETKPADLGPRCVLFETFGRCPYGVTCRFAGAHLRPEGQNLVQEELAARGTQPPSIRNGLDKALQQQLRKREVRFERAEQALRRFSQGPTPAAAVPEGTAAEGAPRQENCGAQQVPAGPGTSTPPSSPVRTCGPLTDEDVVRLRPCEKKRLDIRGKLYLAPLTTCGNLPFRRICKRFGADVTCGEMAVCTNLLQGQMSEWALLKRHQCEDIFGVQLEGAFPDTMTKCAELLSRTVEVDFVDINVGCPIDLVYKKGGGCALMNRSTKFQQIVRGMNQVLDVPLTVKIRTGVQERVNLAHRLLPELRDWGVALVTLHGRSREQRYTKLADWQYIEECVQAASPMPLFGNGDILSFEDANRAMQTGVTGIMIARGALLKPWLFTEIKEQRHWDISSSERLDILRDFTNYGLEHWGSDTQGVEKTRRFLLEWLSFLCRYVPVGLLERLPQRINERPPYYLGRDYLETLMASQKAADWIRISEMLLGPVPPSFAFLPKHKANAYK
UniProt Q96FJ2, whole entry, looked up: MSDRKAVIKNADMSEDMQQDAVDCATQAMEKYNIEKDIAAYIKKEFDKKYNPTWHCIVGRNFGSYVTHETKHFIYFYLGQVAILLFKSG
UniProt O60762: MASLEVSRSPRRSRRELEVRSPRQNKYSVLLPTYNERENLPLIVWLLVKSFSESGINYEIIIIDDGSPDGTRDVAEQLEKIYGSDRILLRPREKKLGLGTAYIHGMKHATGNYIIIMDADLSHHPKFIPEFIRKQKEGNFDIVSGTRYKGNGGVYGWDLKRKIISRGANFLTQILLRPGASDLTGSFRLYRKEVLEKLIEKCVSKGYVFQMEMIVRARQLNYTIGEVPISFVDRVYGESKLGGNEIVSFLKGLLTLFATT
UniProt P55039: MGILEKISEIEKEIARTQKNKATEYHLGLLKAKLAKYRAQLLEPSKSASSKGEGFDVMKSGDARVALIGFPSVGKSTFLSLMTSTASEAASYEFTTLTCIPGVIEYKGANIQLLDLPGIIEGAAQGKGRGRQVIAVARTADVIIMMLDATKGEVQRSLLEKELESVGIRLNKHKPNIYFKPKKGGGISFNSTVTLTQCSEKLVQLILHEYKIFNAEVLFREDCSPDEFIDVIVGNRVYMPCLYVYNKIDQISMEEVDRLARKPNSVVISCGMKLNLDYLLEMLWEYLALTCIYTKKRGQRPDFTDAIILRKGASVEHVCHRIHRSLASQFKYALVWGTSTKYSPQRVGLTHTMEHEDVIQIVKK
UniProt Q9BQ95: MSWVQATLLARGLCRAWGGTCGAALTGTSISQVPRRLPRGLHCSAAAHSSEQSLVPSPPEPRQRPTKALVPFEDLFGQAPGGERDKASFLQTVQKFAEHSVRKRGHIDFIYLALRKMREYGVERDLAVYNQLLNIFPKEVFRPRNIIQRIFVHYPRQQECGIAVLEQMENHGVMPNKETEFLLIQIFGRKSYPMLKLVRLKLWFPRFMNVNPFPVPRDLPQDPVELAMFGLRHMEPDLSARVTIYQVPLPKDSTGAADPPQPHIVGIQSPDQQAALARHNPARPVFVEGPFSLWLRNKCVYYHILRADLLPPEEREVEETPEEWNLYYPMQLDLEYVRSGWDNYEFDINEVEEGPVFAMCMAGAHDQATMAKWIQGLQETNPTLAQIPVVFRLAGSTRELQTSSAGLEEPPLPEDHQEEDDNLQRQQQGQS
UniProt Q8TEA8: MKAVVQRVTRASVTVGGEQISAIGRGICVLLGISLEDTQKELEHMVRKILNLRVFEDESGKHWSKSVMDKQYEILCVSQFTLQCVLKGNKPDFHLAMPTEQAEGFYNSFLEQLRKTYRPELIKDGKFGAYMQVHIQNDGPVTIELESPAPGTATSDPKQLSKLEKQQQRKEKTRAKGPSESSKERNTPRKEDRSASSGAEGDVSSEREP
EEF1AKMT2, A0A494BZY7, UniProt A0A494BZY7, whole entry, looked up: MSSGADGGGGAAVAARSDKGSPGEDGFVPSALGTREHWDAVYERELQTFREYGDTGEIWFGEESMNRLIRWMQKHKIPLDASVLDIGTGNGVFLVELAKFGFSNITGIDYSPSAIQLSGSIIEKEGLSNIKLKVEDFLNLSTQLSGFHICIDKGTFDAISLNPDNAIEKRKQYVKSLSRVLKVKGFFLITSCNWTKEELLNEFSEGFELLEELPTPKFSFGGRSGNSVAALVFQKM
UniProt Q9NRR4: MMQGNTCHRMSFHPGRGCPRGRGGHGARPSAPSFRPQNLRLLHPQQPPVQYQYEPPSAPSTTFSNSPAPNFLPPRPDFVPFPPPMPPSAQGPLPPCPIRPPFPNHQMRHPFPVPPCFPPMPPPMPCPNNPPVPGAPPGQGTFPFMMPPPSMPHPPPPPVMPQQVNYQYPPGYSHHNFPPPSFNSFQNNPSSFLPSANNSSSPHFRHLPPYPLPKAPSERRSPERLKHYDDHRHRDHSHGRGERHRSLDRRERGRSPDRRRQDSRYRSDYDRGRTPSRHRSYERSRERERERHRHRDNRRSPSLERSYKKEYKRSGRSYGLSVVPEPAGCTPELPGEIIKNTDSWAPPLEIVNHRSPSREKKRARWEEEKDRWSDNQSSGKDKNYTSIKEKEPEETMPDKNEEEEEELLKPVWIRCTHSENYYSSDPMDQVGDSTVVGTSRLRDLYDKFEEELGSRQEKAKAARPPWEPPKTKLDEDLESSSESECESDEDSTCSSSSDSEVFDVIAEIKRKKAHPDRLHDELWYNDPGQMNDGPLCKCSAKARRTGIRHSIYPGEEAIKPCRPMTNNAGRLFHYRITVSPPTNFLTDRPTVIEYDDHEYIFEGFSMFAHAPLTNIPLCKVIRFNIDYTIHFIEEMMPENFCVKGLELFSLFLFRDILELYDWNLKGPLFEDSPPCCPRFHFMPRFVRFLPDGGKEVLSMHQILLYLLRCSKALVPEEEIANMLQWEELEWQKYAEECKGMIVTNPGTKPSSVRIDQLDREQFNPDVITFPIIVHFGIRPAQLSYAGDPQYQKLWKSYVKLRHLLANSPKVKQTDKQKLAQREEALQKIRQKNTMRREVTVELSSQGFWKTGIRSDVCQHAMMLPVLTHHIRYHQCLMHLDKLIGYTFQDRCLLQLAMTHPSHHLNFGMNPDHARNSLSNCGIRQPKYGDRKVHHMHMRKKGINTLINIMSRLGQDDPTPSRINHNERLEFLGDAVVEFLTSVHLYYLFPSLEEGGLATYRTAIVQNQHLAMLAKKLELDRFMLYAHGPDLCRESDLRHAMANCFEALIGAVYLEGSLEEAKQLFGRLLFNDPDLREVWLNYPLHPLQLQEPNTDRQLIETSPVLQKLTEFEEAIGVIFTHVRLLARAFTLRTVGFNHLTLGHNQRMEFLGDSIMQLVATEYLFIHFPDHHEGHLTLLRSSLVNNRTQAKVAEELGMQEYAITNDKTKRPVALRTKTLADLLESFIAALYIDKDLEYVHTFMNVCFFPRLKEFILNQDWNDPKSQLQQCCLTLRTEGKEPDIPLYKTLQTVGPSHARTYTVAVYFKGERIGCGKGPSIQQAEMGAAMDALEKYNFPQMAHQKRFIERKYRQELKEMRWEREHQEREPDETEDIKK
UniProt Q8N9N8: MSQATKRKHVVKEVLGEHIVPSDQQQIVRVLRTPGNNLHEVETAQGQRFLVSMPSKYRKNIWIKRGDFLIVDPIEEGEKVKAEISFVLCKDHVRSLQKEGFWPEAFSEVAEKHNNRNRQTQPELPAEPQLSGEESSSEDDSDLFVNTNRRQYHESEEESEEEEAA
UniProt Q8N6R0: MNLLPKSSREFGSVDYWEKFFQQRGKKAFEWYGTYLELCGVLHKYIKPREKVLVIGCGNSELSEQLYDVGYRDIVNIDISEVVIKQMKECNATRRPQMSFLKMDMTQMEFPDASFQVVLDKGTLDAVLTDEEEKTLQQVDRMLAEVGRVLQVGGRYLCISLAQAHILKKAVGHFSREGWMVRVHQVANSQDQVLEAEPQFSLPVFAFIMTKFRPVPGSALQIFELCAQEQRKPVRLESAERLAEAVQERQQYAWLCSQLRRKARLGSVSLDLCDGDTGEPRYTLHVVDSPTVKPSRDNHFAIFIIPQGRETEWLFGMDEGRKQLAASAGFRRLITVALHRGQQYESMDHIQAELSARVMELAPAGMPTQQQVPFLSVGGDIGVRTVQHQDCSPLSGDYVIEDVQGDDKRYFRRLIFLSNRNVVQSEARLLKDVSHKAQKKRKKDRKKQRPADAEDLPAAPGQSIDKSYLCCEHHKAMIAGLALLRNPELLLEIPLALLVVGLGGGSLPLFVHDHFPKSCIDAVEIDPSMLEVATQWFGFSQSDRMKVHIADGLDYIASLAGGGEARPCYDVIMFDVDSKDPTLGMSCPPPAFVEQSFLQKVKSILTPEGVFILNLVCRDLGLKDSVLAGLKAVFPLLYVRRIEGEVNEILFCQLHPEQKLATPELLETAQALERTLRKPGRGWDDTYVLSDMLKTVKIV

Tests used:
Experiment in all cases: log2 fold change, soluble protein after heating vs DMSO (PISA); higher = thermal stabilisation; K562 lysate, 10 uM; active = over 0.2 and 3.5 SD of the protein, either way, in both replicates (recomputed)
alvocidib = compound: CN1CC[C@H](c2c(O)cc(O)c3c(=O)cc(-c4ccccc4Cl)oc23)[C@H](O)C1 [alvocidib]
Procedure, shortened: (§1)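 Log-two fold change in thermal stability relative to solvent controls is reported from duplicates. For each sample, crude K562 extract from dounce-homogenised pellets in PBS pH 7.4 with 1 mM MgCl2, at 1 mg/mL protein, was treated with 10 μM compound for 30 min. Aliquots heated for 3 min across 48°C-58°C were pooled, brought to 0.5% NP-40 at 4°C and cleared at 21,000xg for 90 min. The supernatant was quantified by TMTpro 16plex LC-MS/MS with channel sums equalised.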

Tubastatin A = compound: CN1CCc2c(c3ccccc3n2Cc2ccc(C(=O)NO)cc2)C1 [Tubastatin A]
Procedure, shortened: as §1

[1] = compound: CNC(=O)C1=CC=CC=C1NC2=NC(=NC=C2Cl)NC3=C(C=C(C=C3)N4CCOCC4)OC
Procedure, shortened: as §1

defactinib = compound: CNC(=O)c1ccc(Nc2ncc(C(F)(F)F)c(NCc3nccnc3N(C)S(C)(=O)=O)n2)cc1 [defactinib]
Procedure, shortened: as §1

[2] = compound: CNc1nc(-c2ccc3c(N)n[nH]c3c2)cc(N2C[C@@H](C(=O)NC3CCCCC3)CC[C@H]2C)n1
Procedure, shortened: as §1

encorafenib = compound: COC(=O)N[C@@H](C)CNc1nccc(-c2cn(C(C)C)nc2-c2cc(Cl)cc(NS(C)(=O)=O)c2F)n1 [encorafenib]
Procedure, shortened: as §1

[3] = compound: COC(=O)[C@H](CCSC)NC(=O)C1=C(C=C(C=C1)NC[C@H](CS)N)C2=CC=CC=C2
Procedure, shortened: as §1

alisertib = compound: COc1cc(Nc2ncc3c(n2)-c2ccc(Cl)cc2C(c2c(F)cccc2OC)=NC3)ccc1C(=O)O [alisertib]
Procedure, shortened: as §1

[4] = compound: COc1cc2nc(-c3cc(F)ccc3O)nc(N[C@@H]3CNC[C@H]3C(C)(C)O)c2cc1OC
Procedure, shortened: as §1

gefitinib = compound: COc1cc2ncnc(Nc3ccc(F)c(Cl)c3)c2cc1OCCCN1CCOCC1 [gefitinib]
Procedure, shortened: as §1

lapatinib = compound: CS(=O)(=O)CCNCc1ccc(-c2ccc3ncnc(Nc4ccc(OCc5cccc(F)c5)c(Cl)c4)c3c2)o1 [lapatinib]
Procedure, shortened: as §1

pictilisib = compound: CS(=O)(=O)N1CCN(Cc2cc3nc(-c4cccc5[nH]ncc45)nc(N4CCOCC4)c3s2)CC1 [pictilisib]
Procedure, shortened: as §1

crizotinib = compound: C[C@@H](Oc1cc(-c2cnn(C3CCNCC3)c2)cnc1N)c1c(Cl)ccc(F)c1Cl [crizotinib]
Procedure, shortened: as §1

[5] = compound: C[C@H](C1=CC=C(C=C1)C(=O)NC2=C3C=CNC3=NC=C2)N
Procedure, shortened: as §1

duvelisib = compound: C[C@H](Nc1ncnc2nc[nH]c12)c1cc2cccc(Cl)c2c(=O)n1-c1ccccc1 [duvelisib]
Procedure, shortened: as §1

gandotinib = compound: Cc1cc(Nc2cc(CN3CCOCC3)c3nc(C)c(Cc4ccc(Cl)cc4F)n3n2)n[nH]1 [gandotinib]
Procedure, shortened: as §1

tozasertib = compound: Cc1cc(Nc2cc(N3CCN(C)CC3)nc(Sc3ccc(NC(=O)C4CC4)cc3)n2)n[nH]1 [tozasertib]
Procedure, shortened: as §1

doramapimod = compound: Cc1ccc(-n2nc(C(C)(C)C)cc2NC(=O)Nc2ccc(OCCN3CCOCC3)c3ccccc23)cc1 [doramapimod]
Procedure, shortened: as §1

bafetinib = compound: Cc1ccc(NC(=O)c2ccc(CN3CC[C@H](N(C)C)C3)c(C(F)(F)F)c2)cc1Nc1nccc(-c2cncnc2)n1 [bafetinib]
Procedure, shortened: as §1

[6] = compound: Cc1cccc(CC(=O)N2CCc3c2ccc(-c2cn(C)c4ncnc(N)c24)c3F)n1
Procedure, shortened: as §1

Measured: log2 fold change

ECH1 (UniProt Q13011)
inactive: alvocidib 0.017 | [1] -0.028 | defactinib 0.004 | [2] -0.004 | encorafenib -0.033 | [3] -0.024 | alisertib -0.01 | [4] 0.047 | gefitinib -0.001 | lapatinib -0.035 | pictilisib -0.008 | crizotinib -0.03 | [5] -0.089 | duvelisib 0.016 | gandotinib 0.005 | tozasertib 0.178 | doramapimod -0.008 | bafetinib 0.091 | [6] 0.028
active: Tubastatin A 0.309

EEF2 (UniProt P13639)
inactive: alvocidib 0.017 | Tubastatin A 0.011 | [1] -0.012 | defactinib -0.009 | [2] -0.007 | encorafenib -0.023 | [3] 0.024 | alisertib 0 | [4] -0.013 | gefitinib -0.023 | lapatinib 0.002 | pictilisib 0.005 | crizotinib 0.029 | [5] 0.007 | duvelisib -0.01 | gandotinib 0.011 | tozasertib -0.004 | doramapimod -0.009 | bafetinib 0.066 | [6] -0.014

EDRF1 (UniProt Q3B7T1)
inactive: alvocidib -0.005 | Tubastatin A 0.041 | [1] 0.092 | defactinib 0.099 | [2] 0.133 | encorafenib 0.043 | [3] 0.056 | alisertib 0.1 | [4] 0.011 | gefitinib -0.023 | lapatinib -0.039 | pictilisib -0.041 | crizotinib -0.183 | [5] 0.025 | duvelisib -0.003 | gandotinib -0.02 | tozasertib 0.086 | doramapimod 0.034 | bafetinib -0.095 | [6] -0.019

DXO (UniProt O77932)
inactive: alvocidib 0 | Tubastatin A 0.012 | [1] 0.008 | defactinib -0.022 | [2] -0.072 | encorafenib 0.068 | [3] -0.059 | alisertib -0.023 | [4] 0.007 | gefitinib -0.024 | lapatinib -0.032 | pictilisib -0.055 | crizotinib -0.064 | [5] -0.081 | duvelisib 0.048 | gandotinib -0.061 | tozasertib -0.057 | doramapimod -0.076 | bafetinib 0.03 | [6] 0.018

DPH7 (UniProt Q9BTV6)
inactive: alvocidib -0.014 | Tubastatin A -0.039 | [1] -0.021 | defactinib 0.075 | [2] 0.018 | encorafenib -0.012 | [3] -0.024 | alisertib 0.032 | [4] 0.047 | gefitinib -0.022 | lapatinib -0.005 | pictilisib -0.006 | crizotinib -0.009 | [5] 0.007 | duvelisib 0.003 | gandotinib 0.084 | tozasertib -0.007 | doramapimod 0 | bafetinib -0.042 | [6] -0.008

DUS3L (UniProt Q96G46)
inactive: alvocidib 0.076 | Tubastatin A -0.065 | [1] -0.012 | defactinib -0.023 | [2] 0.001 | encorafenib 0.091 | [3] -0.024 | alisertib -0.02 | [4] 0.036 | gefitinib -0.005 | lapatinib -0.009 | pictilisib -0.02 | crizotinib -0.027 | [5] 0.202 | duvelisib -0.022 | gandotinib -0.081 | tozasertib 0.009 | doramapimod -0.018 | bafetinib 0.093 | [6] -0.097

DYNLL2 (UniProt Q96FJ2)
inactive: alvocidib 0.005 | Tubastatin A 0.118 | [1] 0.001 | defactinib -0.022 | [2] 0.054 | encorafenib -0.002 | [3] -0.127 | alisertib 0.02 | [4] 0.003 | gefitinib -0.106 | lapatinib -0.038 | pictilisib -0.026 | crizotinib -0.036 | [5] -0.04 | duvelisib 0.035 | gandotinib 0.014 | tozasertib -0.034 | doramapimod 0.031 | bafetinib 0.022 | [6] 0.02

DPM1 (UniProt O60762)
inactive: alvocidib 0.084 | Tubastatin A 0.055 | [1] -0.005 | defactinib 0.037 | [2] 0.041 | encorafenib 0.01 | [3] 0.083 | alisertib 0.047 | [4] 0.013 | gefitinib -0.041 | lapatinib -0.003 | pictilisib 0.009 | crizotinib 0.009 | [5] 0.028 | duvelisib -0.018 | gandotinib -0.097 | tozasertib -0.014 | doramapimod -0.046 | bafetinib -0.061 | [6] 0.061

DRG2 (UniProt P55039)
inactive: alvocidib 0.026 | Tubastatin A -0.002 | [1] 0.025 | defactinib -0.01 | [2] -0.005 | encorafenib -0.001 | [3] 0.035 | alisertib 0.018 | [4] -0.004 | gefitinib -0.035 | lapatinib -0.024 | pictilisib -0.002 | crizotinib -0.021 | [5] -0.047 | duvelisib -0.001 | gandotinib -0.01 | tozasertib 0.016 | doramapimod 0.04 | bafetinib -0.044 | [6] -0.005

ECSIT (UniProt Q9BQ95)
inactive: alvocidib 0.041 | Tubastatin A 0.041 | [1] 0.01 | defactinib -0.038 | [2] -0.011 | encorafenib -0.018 | [3] 0.019 | alisertib -0.045 | [4] 0.023 | gefitinib 0.019 | lapatinib -0.062 | pictilisib -0.044 | crizotinib -0.004 | [5] -0.016 | duvelisib -0.011 | gandotinib -0.049 | tozasertib -0.018 | doramapimod -0.042 | bafetinib 0.003 | [6] 0.013

DTD1 (UniProt Q8TEA8)
inactive: alvocidib -0.023 | Tubastatin A 0.019 | [1] -0.066 | defactinib 0.005 | [2] 0.031 | encorafenib -0.011 | [3] -0.024 | alisertib 0.012 | [4] -0.008 | gefitinib 0.054 | lapatinib 0.035 | pictilisib -0.008 | crizotinib 0.05 | [5] -0.055 | duvelisib 0.047 | gandotinib 0.054 | tozasertib 0.017 | doramapimod 0.039 | bafetinib 0.034 | [6] 0.025

EEF1AKMT2, A0A494BZY7
inactive: alvocidib 0.015 | Tubastatin A -0.065 | [1] -0.078 | defactinib -0.04 | [2] -0.015 | encorafenib -0.016 | [3] 0.069 | alisertib -0.02 | [4] 0.013 | gefitinib 0.011 | lapatinib -0.001 | pictilisib -0.028 | crizotinib -0.061 | [5] -0.044 | duvelisib 0.006 | gandotinib -0.095 | tozasertib 0 | doramapimod -0.023 | bafetinib 0 | [6] 0.007

DST (UniProt Q03001)
inactive: alvocidib -0.047 | Tubastatin A 0.033 | [1] -0.003 | defactinib -0.094 | [2] 0.114 | encorafenib 0.018 | [3] 0.048 | alisertib 0.003 | [4] 0.033 | gefitinib 0.046 | lapatinib -0.019 | pictilisib 0.015 | crizotinib -0.02 | [5] -0.17 | duvelisib 0.018 | gandotinib 0.101 | tozasertib 0.024 | doramapimod 0.023 | bafetinib -0.137 | [6] 0.246

DROSHA (UniProt Q9NRR4)
inactive: alvocidib -0.041 | Tubastatin A -0.15 | [1] -0.029 | defactinib -0.046 | [2] 0.009 | encorafenib 0.057 | [3] 0.065 | alisertib 0.048 | [4] -0.079 | gefitinib 0.079 | lapatinib -0.007 | pictilisib 0.073 | crizotinib 0.061 | [5] 0.019 | duvelisib 0.002 | gandotinib -0.156 | tozasertib 0.012 | doramapimod 0.023 | bafetinib -0.063 | [6] -0.119

EIF1AD (UniProt Q8N9N8)
inactive: alvocidib 0.009 | Tubastatin A 0.034 | [1] 0.011 | defactinib -0.021 | [2] 0.034 | encorafenib 0.01 | [3] -0.036 | alisertib 0.04 | [4] -0.003 | gefitinib 0.046 | lapatinib 0.012 | pictilisib 0.024 | crizotinib 0.001 | [5] -0.056 | duvelisib 0.01 | gandotinib 0.019 | tozasertib 0.007 | doramapimod 0.046 | bafetinib 0.022 | [6] -0.021

EEF1AKNMT (UniProt Q8N6R0)
inactive: alvocidib 0.009 | Tubastatin A -0.102 | [1] 0.051 | defactinib -0.012 | [2] -0.015 | encorafenib 0.005 | [3] 0.076 | alisertib -0.02 | [4] 0.027 | gefitinib -0.031 | lapatinib -0.006 | pictilisib -0.046 | crizotinib -0.123 | [5] 0.017 | duvelisib 0.03 | gandotinib -0.133 | tozasertib -0.029 | doramapimod 0.074 | bafetinib -0.014 | [6] -0.024

Copied from the entries so far (3 entries):
DPH7 (UniProt Q9BTV6)
inactive: alvocidib -0.014 | Tubastatin A -0.039 | [1] -0.021 | defactinib 0.075 | [2] 0.018 | encorafenib -0.012 | [3] -0.024 | alisertib 0.032 | [4] 0.047 | gefitinib -0.022 | lapatinib -0.005 | pictilisib -0.006 | crizotinib -0.009 | [5] 0.007 | duvelisib 0.003 | gandotinib 0.084 | tozasertib -0.007 | doramapimod 0 | bafetinib -0.042 | [6] -0.008

DUS3L (UniProt Q96G46)
inactive: alvocidib 0.076 | Tubastatin A -0.065 | [1] -0.012 | defactinib -0.023 | [2] 0.001 | encorafenib 0.091 | [3] -0.024 | alisertib -0.02 | [4] 0.036 | gefitinib -0.005 | lapatinib -0.009 | pictilisib -0.02 | crizotinib -0.027 | [5] 0.202 | duvelisib -0.022 | gandotinib -0.081 | tozasertib 0.009 | doramapimod -0.018 | bafetinib 0.093 | [6] -0.097

DYNLL2 (UniProt Q96FJ2)
inactive: alvocidib 0.005 | Tubastatin A 0.118 | [1] 0.001 | defactinib -0.022 | [2] 0.054 | encorafenib -0.002 | [3] -0.127 | alisertib 0.02 | [4] 0.003 | gefitinib -0.106 | lapatinib -0.038 | pictilisib -0.026 | crizotinib -0.036 | [5] -0.04 | duvelisib 0.035 | gandotinib 0.014 | tozasertib -0.034 | doramapimod 0.031 | bafetinib 0.022 | [6] 0.02
